Measured values reported in the supplement of paper PMC4683952.
This is one part of the list. Rule as the data show it: active = 2 or more and inactive = the rest. Most values lie within the scatter of the assay; repeated measurements hardly agree.

System: Lgr5 (MarsCy1-Lgr5-EGFP, U2OS)
Test: cell-surface Lgr5 expression (SCi1 fluorescence, background-subtracted) relative to WT DMSO (fold of DMSO control); higher = more Lgr5 at the plasma membrane
Conditions: U2OS MarsCy1-Lgr5-EGFP stable; treatment time: overnight; library: ActiProbe-5K (TimTec); 25 µM

SMILES | cell-surface Lgr5 expression
Cn1ccc(-c2ccnc(NN)n2)n1 | inactive: 1
COc1cc(C2c3cc4c(cc3OC3(O)CCCCC23)OCO4)cc(OC)c1OC (stereo not given) | inactive: 1.49
Nc1nnc(SCC(=O)N2CCOCC2)s1 | inactive: 1.29
CN(C)S(=O)(=O)Nc1nc2ccc(S(C)(=O)=O)cc2s1 | inactive: 1.1
O=S(=O)(Nc1nc2ccccc2s1)c1ccccc1 | inactive: 1.05
c1ccc2sc(CCc3nc4ccccc4s3)nc2c1 | inactive: 1.28
CCOC(=O)c1sc2nc3n(c(=O)c2c1C)CCCC3C(=O)OCC (stereo not given) | inactive: 1.38
O=C1NC(=O)/C(=C\c2ccc3cccnc3c2)S1 | inactive: 1.49
C1(=C([C@]([C@@H]([C@@H]2(C1=CCN(C2)CCC))c1cscc1)(C#N)C#N)N)C#N | inactive: 1.24
Cc1n[nH]c(=O)nc1N/N=C/c1cccs1 | inactive: 0.951
Brc1ccc2c(c1)c1nc3ccccc3nc1n2CCc1ccccc1 | inactive: 1.71
CC1(C)CC(NC(=O)CCC2CCCCC2)CC(C)(CNC(=O)CCC2CCCCC2)C1 (stereo not given) | inactive: 1
C1(/c2c(cccc2)c2c1cccc2)=N/NC(=S)N | inactive: 1.01
CC1(C)Nc2ccccc2-c2c1ss/c2=N/c1ccc(Cl)cc1Cl | inactive: 1.02
NNc1cc(Cl)ccc1[N+](=O)[O-] | inactive: 1.55
CC1CC(C)CN(C(=O)N2CCOCC2)C1 (stereo not given) | inactive: 1.22
CC1(C)OC(=O)N(CCCC(=O)[O-])C1(C)O (stereo not given) | inactive: 1.33
N#Cc1ccnc(Oc2ccc3c(c2)OCO3)c1 | inactive: 1.26
Clc1ccc(OC2CCCNC2)cc1 (stereo not given) | inactive: 1.09
CCC1(C)OC(=O)N(Cc2ccco2)C1(C)O (stereo not given) | inactive: 1.3
N#Cc1c(SCc2cccc(F)c2)nsc1SCc1cccc(F)c1 | inactive: 0.763
Brc1csc(-c2cc(Br)cs2)c1 | inactive: 1.03
CC(C)c1ccc(C2Oc3ccccc3C3CC(c4ccccc4)=NN32)cc1 (stereo not given) | inactive: 0.848
NC(=O)c1c(NC(=O)c2ccc(Br)o2)sc2c1CCCC2 | inactive: 1.12
NCCCn1cc(Cl)c([N+](=O)[O-])n1 | inactive: 1.43
CC1=Nc2c(ccc3cccnc23)C1(C)C | inactive: 1.04
CCCCC1(CCCC)NC(=S)N(c2ccc(C)cc2)N1 | inactive: 1.13
Cc1[nH]nc2c1C1(CCSCC1)C(C#N)=C(N)O2 | inactive: 0.97
C=CCNc1nc(N2CCCCC2)nc(N2CCCCC2)n1 | inactive: 1.44
Cc1cc(N(C)N)n2c(nc3cc(F)c(F)cc32)c1C#N | inactive: 0.968

Reprinted from the listing, 2 compounds:
SMILES | cell-surface Lgr5 expression
CN(C)S(=O)(=O)Nc1nc2ccc(S(C)(=O)=O)cc2s1 | inactive: 1.1
O=S(=O)(Nc1nc2ccccc2s1)c1ccccc1 | inactive: 1.05
